Patent US8461085B2, “Bioherbicide from Festuca spp” (Cornell Research Foundation, Inc., priority 2005, dated 2013)
Some results were stated once for a whole list of compounds, not compound by compound. At least one structure is not confirmed: it was looked up by name or label, or the drawing left a doubt.

Test system: lettuce seedlings (Lactuca sativa L.)
Experiment: Petri-dish bioassay, radicle elongation in lettuce seedlings
Conditions: in vivo

N[C@@H](Cc1ccccc1O)C(=O)O [o-tyrosine, 2′-hydroxyphenylalanine]
concentration at which lettuce seedling growth is stimulated: ≥ 50 µM
